# Experimental data reported in the supplement of paper PMC10338343.
# ± gives the standard deviation. The entries are a selection whose mix differs from that of the whole data set. The uncertainty is large for many entries. Some of the results follow.
# Columns and labels:
# [1] = tested on: MIWI (PIWIL1) piRISC loaded with L1MC piRNA (30 nt); assay: pre-steady-state target cleavage rate (min^-1); higher = faster piRNA-guided slicing of the target; conditions: guide: L1MC piRNA 5'p-UAACUAAAUACUAUGCAAGCUGUAGGUCCU
# Method in brief: (§1)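 A transcribed, DNA-blocked target RNA library (0.1 nM) and 1 nM active affinity-purified piRISC bearing one synthetic guide were incubated in HEPES–potassium acetate buffer at 33 °C for 0–8 or 0–960 min, either with or without 500 nM GTSF1 partner protein. Uncleaved targets were sequenced, normalised to depth and to weakly complementary targets, and pooled over three trials, with k3 capped at 0.0001 min^-1. The pre-steady-state cleavage rate was derived with a burst-and-steady-state fit.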
# [2] = tested on: EfPiwi piRISC loaded with L1MC piRNA (26 nt); assay: pre-steady-state target cleavage rate (min^-1); guide: L1MC piRNA 5'p-UAACUAAAUACUAUGCAAGCUGUAGG; higher = faster piRNA-guided slicing of the target; conditions: auxiliary factor: 500 nM Ephydatia muelleri Gtsf1
# Method in brief: as §1
# [3] = tested on: MILI (PIWIL2) piRISC loaded with L1MC piRNA (26 nt); assay: pre-steady-state target cleavage rate (min^-1); MIWI and MILI are mouse PIWI proteins and EfPiwi is from a freshwater sponge; tags in brackets are library labels; higher = faster piRNA-guided slicing of the target; conditions: guide: L1MC piRNA 5'p-UAACUAAAUACUAUGCAAGCUGUAGG
# Method in brief: as §1
# [4] = auxiliary factor: 500 nM mouse GTSF1
# [5] = auxiliary factor: none (no GTSF1)
sequence,measurement,setting,value
UCCUGGAUGUCGUUCCAUAGUAUUUAGAUA,pre-steady-state target cleavage rate,[1]; [4],0.00292 ± 0.0046
same,pre-steady-state target cleavage rate,[1]; [5],0.00055 ± 0.011
same,pre-steady-state target cleavage rate,[2],0.000142 ± 0.021
UCCUGGAUCAGCUUGCAUACAUAAAUCAAA [g12:g22:cont:t1A],pre-steady-state target cleavage rate,[1]; [4],0.00195 ± 0.0061
same,pre-steady-state target cleavage rate,[1]; [5],0.000409 ± 0.012
same,pre-steady-state target cleavage rate,[2],0.00121 ± 0.008
UCCUGGAUGUCGAAGCAAUAGUAUUUAGUUA,pre-steady-state target cleavage rate,[1]; [4],0.000189 ± 0.048
same,pre-steady-state target cleavage rate,[1]; [5],0.000706 ± 0.0074
same,pre-steady-state target cleavage rate,[2],0.000881 ± 0.0088
UCCUGGAUGUCGAACGAUAGUAUGUUAGUUA,pre-steady-state target cleavage rate,[3]; [5],< 0.0001
UCCUCCUACAGCUUGUCAUAGUAUUUAGUUA,pre-steady-state target cleavage rate,[1]; [4],0.44 ± 0.046
same,pre-steady-state target cleavage rate,[1]; [5],0.0017 ± 0.0027
same,pre-steady-state target cleavage rate,[2],0.0546 ± 0.016
UCCUGGAUGUCGAUGCAUAGUGAUUUAGUUA,pre-steady-state target cleavage rate,[1]; [4],0.000393 ± 0.026
same,pre-steady-state target cleavage rate,[1]; [5],0.00175 ± 0.005
same,pre-steady-state target cleavage rate,[2],0.000929 ± 0.0092
UCCUCCUACUGCUUGCAUAGUAUUUACUUA,pre-steady-state target cleavage rate,[3]; [4],0.0701 ± 0.013
same,pre-steady-state target cleavage rate,[3]; [5],0.00215 ± 0.0026
UCCUGGAUGUCGUUGAAUAGUAUUUAGUUA,pre-steady-state target cleavage rate,[3]; [4],0.0817 ± 0.015
same,pre-steady-state target cleavage rate,[3]; [5],0.0047 ± 0.0024
UCCUGGAUGUCGAUGCAUAGAUUUUAGUUA,pre-steady-state target cleavage rate,[3]; [4],0.0015 ± 0.0074
same,pre-steady-state target cleavage rate,[3]; [5],0.00123 ± 0.0059
UCCUGGAUGUCGAACGAUGAGUAUUUAGUUA,pre-steady-state target cleavage rate,[3]; [4],0.000132 ± 0.019
same,pre-steady-state target cleavage rate,[3]; [5],< 0.0001
UCCUGGAUCAGCUUGCAUAGAAUUUAGUAA,pre-steady-state target cleavage rate,[3]; [4],0.0373 ± 0.011
same,pre-steady-state target cleavage rate,[3]; [5],0.000899 ± 0.0061
UCCUGGAUGUCGUUGCAUUGUAUUUUGUUA,pre-steady-state target cleavage rate,[3]; [4],0.00231 ± 0.0068
same,pre-steady-state target cleavage rate,[3]; [5],0.000796 ± 0.0091
UCCUCCUACAGCUUGCUUAGUAUUUUGUUA,pre-steady-state target cleavage rate,[3]; [4],0.133 ± 0.016
same,pre-steady-state target cleavage rate,[3]; [5],0.0026 ± 0.0026
UCCUGGAACAGCUUGCAUAGUUUUUUGUUA,pre-steady-state target cleavage rate,[3]; [4],0.0493 ± 0.014
same,pre-steady-state target cleavage rate,[3]; [5],0.00203 ± 0.0037
UCCUGCUACCAGCUUGCAUAGUAUUUAGUUA,pre-steady-state target cleavage rate,[3]; [4],0.24 ± 0.019
same,pre-steady-state target cleavage rate,[3]; [5],0.0115 ± 0.0033
UCCUGGAUCAGCUUGCAUAGUAUUUACGUUA,pre-steady-state target cleavage rate,[3]; [4],0.243 ± 0.027
same,pre-steady-state target cleavage rate,[3]; [5],0.00431 ± 0.0028
UCCUGCUACAGCUUGCAUUGUAUUAAGUUA,pre-steady-state target cleavage rate,[3]; [4],0.215 ± 0.03
same,pre-steady-state target cleavage rate,[3]; [5],0.00215 ± 0.0038
UCCUGCUACAGCUUGCAUAGUAUGUUAGUUA,pre-steady-state target cleavage rate,[3]; [4],0.164 ± 0.036
same,pre-steady-state target cleavage rate,[3]; [5],0.00171 ± 0.0045
UCCUGGAACGCUUGCAUAGUAUUUAGUUA,pre-steady-state target cleavage rate,[3]; [4],0.239 ± 0.015
same,pre-steady-state target cleavage rate,[3]; [5],0.00644 ± 0.0019
UCCUCGUACAGCUUGCAUAGUAUUUUGUUA,pre-steady-state target cleavage rate,[3]; [4],0.143 ± 0.016
same,pre-steady-state target cleavage rate,[3]; [5],0.00289 ± 0.0028
UCCUGGAUGUGCUUGCAUAGUGUUUAGUUA,pre-steady-state target cleavage rate,[3]; [4],0.0653 ± 0.013
same,pre-steady-state target cleavage rate,[3]; [5],0.00396 ± 0.0032
UCCUCCUUCAGCUUGCAUAGUAUUUAGAUA,pre-steady-state target cleavage rate,[3]; [4],0.157 ± 0.022
same,pre-steady-state target cleavage rate,[3]; [5],0.00242 ± 0.0024
UCCUGGAUGUCCUUGCAAGUAUUUAGUUA,pre-steady-state target cleavage rate,[3]; [4],0.00288 ± 0.0041
same,pre-steady-state target cleavage rate,[3]; [5],0.00196 ± 0.0028
UCCUCCUACAGCUUGCAAUCUAUUUAGUUA,pre-steady-state target cleavage rate,[3]; [4],0.0266 ± 0.0058
same,pre-steady-state target cleavage rate,[3]; [5],0.00183 ± 0.0026
UCCUGGAUGUCGAACGUAUCUAUUUCAGUUA,pre-steady-state target cleavage rate,[3]; [4],< 0.0001
same,pre-steady-state target cleavage rate,[3]; [5],0.000176 ± 0.029
UCCUGCAACAGCUUGCAUAGUAUUUUGUUA,pre-steady-state target cleavage rate,[3]; [4],0.179 ± 0.023
same,pre-steady-state target cleavage rate,[3]; [5],0.00262 ± 0.0031
UCCUGGAUGUGCUUGCAUAGUAUUAUCAAA,pre-steady-state target cleavage rate,[3]; [4],0.00236 ± 0.0052
same,pre-steady-state target cleavage rate,[3]; [5],0.000439 ± 0.011
UCCUGGUACAGCUUUGCAUAGUAUUUAGUUA,pre-steady-state target cleavage rate,[3]; [4],0.185 ± 0.018
same,pre-steady-state target cleavage rate,[3]; [5],0.0164 ± 0.0048
UCCUGGAUGAGCUAGCAUAGUAUUUAGAUA,pre-steady-state target cleavage rate,[3]; [4],0.168 ± 0.028
same,pre-steady-state target cleavage rate,[3]; [5],0.00234 ± 0.0029
UCCUGGAUGUGCUUAGCAUAGUAUUUAGUUA,pre-steady-state target cleavage rate,[3]; [4],0.124 ± 0.015
same,pre-steady-state target cleavage rate,[3]; [5],0.00625 ± 0.0028
UCCUGGAUGAGGCUUGCAUAGUAUUUAGUUA,pre-steady-state target cleavage rate,[3]; [4],0.186 ± 0.018
same,pre-steady-state target cleavage rate,[3]; [5],0.0125 ± 0.0036
UCCUCCUAGUGCUUGCAUAGUAUUUAGUAA,pre-steady-state target cleavage rate,[3]; [4],0.114 ± 0.019
same,pre-steady-state target cleavage rate,[3]; [5],0.00146 ± 0.0032
UCCUGGAUCAGCUUGCUUAGUAUUUAGUUA,pre-steady-state target cleavage rate,[3]; [4],0.248 ± 0.019
same,pre-steady-state target cleavage rate,[3]; [5],0.0092 ± 0.0031
UCCUGGAUGAGCUUGCAGAGUAUUUAGUUA,pre-steady-state target cleavage rate,[3]; [4],0.0869 ± 0.0095
same,pre-steady-state target cleavage rate,[3]; [5],0.00792 ± 0.0024
UCCUGCUACAGCUAGCAUAGUAUUUAGUUA,pre-steady-state target cleavage rate,[3]; [4],0.354 ± 0.027
UCCUGGUACAGCUAGGAUAGUAUUUAGUUA,pre-steady-state target cleavage rate,[3]; [4],0.191 ± 0.026
same,pre-steady-state target cleavage rate,[3]; [5],0.00723 ± 0.0022
UCCUGGAUCUCGUUGCAUAGUAUUUAGUAA,pre-steady-state target cleavage rate,[3]; [4],0.114 ± 0.018
same,pre-steady-state target cleavage rate,[3]; [5],0.003 ± 0.0027
UCCUCCUACACCUUGCAUAGUAUUUACUUA,pre-steady-state target cleavage rate,[3]; [4],0.128 ± 0.038
same,pre-steady-state target cleavage rate,[3]; [5],0.00167 ± 0.0044
UCCUGCUUCAGCUUGCUUAGUAUUUAGUUA,pre-steady-state target cleavage rate,[3]; [4],0.287 ± 0.011
same,pre-steady-state target cleavage rate,[3]; [5],0.00807 ± 0.0021
UCCUGGAUGAGCUUGCAUAGUUUUUAGAAA,pre-steady-state target cleavage rate,[3]; [4],0.00151 ± 0.0079
same,pre-steady-state target cleavage rate,[3]; [5],0.000767 ± 0.0091
UCCUGGAUGUCCUUGGAUAGUAUUUAGUUA,pre-steady-state target cleavage rate,[3]; [4],0.153 ± 0.021
same,pre-steady-state target cleavage rate,[3]; [5],0.00762 ± 0.0021
UCCUCCUACAGGUAGCAUAGUAUUUAGUUA,pre-steady-state target cleavage rate,[3]; [4],0.273 ± 0.013
same,pre-steady-state target cleavage rate,[3]; [5],0.00904 ± 0.0021
UCCUGGAUCAGCUUGCAUAGUAUUAGUUA,pre-steady-state target cleavage rate,[3]; [4],0.141 ± 0.018
same,pre-steady-state target cleavage rate,[3]; [5],0.00276 ± 0.0031
UCCUCCUACAGCAUGCAUAGUAAUUAGUUA,pre-steady-state target cleavage rate,[3]; [4],0.251 ± 0.024
same,pre-steady-state target cleavage rate,[3]; [5],0.00544 ± 0.0019
UCCUGGAUGAGCUUGCAUACUAUUUAGUAA,pre-steady-state target cleavage rate,[3]; [4],0.00877 ± 0.0036
same,pre-steady-state target cleavage rate,[3]; [5],0.00173 ± 0.0039
UCCUCGAACAGCUUGCAUAGUAUUUACAAA,pre-steady-state target cleavage rate,[3]; [4],0.0992 ± 0.021
same,pre-steady-state target cleavage rate,[3]; [5],0.00165 ± 0.0038
UCCUGGAACAGGUUGCAUAGUAUUAAGUUA,pre-steady-state target cleavage rate,[3]; [4],0.213 ± 0.023
same,pre-steady-state target cleavage rate,[3]; [5],0.00415 ± 0.0022
UCCUGGAUGUGCAUGCAUAGUAUUUAGAUA,pre-steady-state target cleavage rate,[3]; [4],0.146 ± 0.032
same,pre-steady-state target cleavage rate,[3]; [5],0.00184 ± 0.0046
UCCUGGAUGAGCUUGCAUAGUAGUUAGUUA,pre-steady-state target cleavage rate,[3]; [4],0.158 ± 0.026
same,pre-steady-state target cleavage rate,[3]; [5],0.00314 ± 0.0032
UCCUCCUACAGCUUGCAUUAGUAUUUAGUUA,pre-steady-state target cleavage rate,[3]; [4],0.0229 ± 0.0088
same,pre-steady-state target cleavage rate,[3]; [5],0.00103 ± 0.0052
same,pre-steady-state target cleavage rate,[1]; [5],0.000714 ± 0.0086
UCCUGCUACAUCUUGCAUAGUAUUUAGUUA,pre-steady-state target cleavage rate,[3]; [4],0.239 ± 0.02
same,pre-steady-state target cleavage rate,[3]; [5],0.0095 ± 0.0022
UCCUGGAUGUCGUUGCAUACUUUUUAGUUA,pre-steady-state target cleavage rate,[3]; [4],0.000761 ± 0.009
same,pre-steady-state target cleavage rate,[3]; [5],0.000824 ± 0.0075
UCCUCCUACAGCUUGGAUAGUAUUUAGUUA,pre-steady-state target cleavage rate,[3]; [4],0.294 ± 0.017
same,pre-steady-state target cleavage rate,[3]; [5],0.0109 ± 0.003
UCCUGGAUGUCGAACCAUAGUAUUUCAGUUA,pre-steady-state target cleavage rate,[3]; [4],0.000515 ± 0.0098
same,pre-steady-state target cleavage rate,[3]; [5],0.000227 ± 0.021
same,pre-steady-state target cleavage rate,[1]; [4],0.000353 ± 0.015

# Copied from the listing for reference:
sequence,measurement,setting,value
UCCUCCUACUGCUUGCAUAGUAUUUACUUA,pre-steady-state target cleavage rate,[3]; [4],0.0701 ± 0.013
same,pre-steady-state target cleavage rate,[3]; [5],0.00215 ± 0.0026
UCCUGGAUGUCGUUGAAUAGUAUUUAGUUA,pre-steady-state target cleavage rate,[3]; [4],0.0817 ± 0.015
same,pre-steady-state target cleavage rate,[3]; [5],0.0047 ± 0.0024
UCCUGGAUGUCGAUGCAUAGAUUUUAGUUA,pre-steady-state target cleavage rate,[3]; [4],0.0015 ± 0.0074
same,pre-steady-state target cleavage rate,[3]; [5],0.00123 ± 0.0059
UCCUGGAUGUCGAACGAUGAGUAUUUAGUUA,pre-steady-state target cleavage rate,[3]; [4],0.000132 ± 0.019
same,pre-steady-state target cleavage rate,[3]; [5],< 0.0001
UCCUGGAUCAGCUUGCAUAGAAUUUAGUAA,pre-steady-state target cleavage rate,[3]; [4],0.0373 ± 0.011
same,pre-steady-state target cleavage rate,[3]; [5],0.000899 ± 0.0061
UCCUGGAUGUCGUUGCAUUGUAUUUUGUUA,pre-steady-state target cleavage rate,[3]; [4],0.00231 ± 0.0068
same,pre-steady-state target cleavage rate,[3]; [5],0.000796 ± 0.0091
UCCUCCUACAGCUUGCUUAGUAUUUUGUUA,pre-steady-state target cleavage rate,[3]; [4],0.133 ± 0.016
same,pre-steady-state target cleavage rate,[3]; [5],0.0026 ± 0.0026
UCCUGGAACAGCUUGCAUAGUUUUUUGUUA,pre-steady-state target cleavage rate,[3]; [4],0.0493 ± 0.014
same,pre-steady-state target cleavage rate,[3]; [5],0.00203 ± 0.0037
UCCUGCUACCAGCUUGCAUAGUAUUUAGUUA,pre-steady-state target cleavage rate,[3]; [4],0.24 ± 0.019
same,pre-steady-state target cleavage rate,[3]; [5],0.0115 ± 0.0033
UCCUGGAUCAGCUUGCAUAGUAUUUACGUUA,pre-steady-state target cleavage rate,[3]; [4],0.243 ± 0.027
same,pre-steady-state target cleavage rate,[3]; [5],0.00431 ± 0.0028
